Laboratory results taken from publication PMC6602948.
These are yes or no findings as the source states them, for the method shown. Binding seen in cells or lysates may run through a third protein. Some entries that bind do so weakly or less than the wild type.

The chains behind the UniProt entries cited, without tags or fusion partners. Residues count along the entry.
UniProt Q01097, residues 27-1482: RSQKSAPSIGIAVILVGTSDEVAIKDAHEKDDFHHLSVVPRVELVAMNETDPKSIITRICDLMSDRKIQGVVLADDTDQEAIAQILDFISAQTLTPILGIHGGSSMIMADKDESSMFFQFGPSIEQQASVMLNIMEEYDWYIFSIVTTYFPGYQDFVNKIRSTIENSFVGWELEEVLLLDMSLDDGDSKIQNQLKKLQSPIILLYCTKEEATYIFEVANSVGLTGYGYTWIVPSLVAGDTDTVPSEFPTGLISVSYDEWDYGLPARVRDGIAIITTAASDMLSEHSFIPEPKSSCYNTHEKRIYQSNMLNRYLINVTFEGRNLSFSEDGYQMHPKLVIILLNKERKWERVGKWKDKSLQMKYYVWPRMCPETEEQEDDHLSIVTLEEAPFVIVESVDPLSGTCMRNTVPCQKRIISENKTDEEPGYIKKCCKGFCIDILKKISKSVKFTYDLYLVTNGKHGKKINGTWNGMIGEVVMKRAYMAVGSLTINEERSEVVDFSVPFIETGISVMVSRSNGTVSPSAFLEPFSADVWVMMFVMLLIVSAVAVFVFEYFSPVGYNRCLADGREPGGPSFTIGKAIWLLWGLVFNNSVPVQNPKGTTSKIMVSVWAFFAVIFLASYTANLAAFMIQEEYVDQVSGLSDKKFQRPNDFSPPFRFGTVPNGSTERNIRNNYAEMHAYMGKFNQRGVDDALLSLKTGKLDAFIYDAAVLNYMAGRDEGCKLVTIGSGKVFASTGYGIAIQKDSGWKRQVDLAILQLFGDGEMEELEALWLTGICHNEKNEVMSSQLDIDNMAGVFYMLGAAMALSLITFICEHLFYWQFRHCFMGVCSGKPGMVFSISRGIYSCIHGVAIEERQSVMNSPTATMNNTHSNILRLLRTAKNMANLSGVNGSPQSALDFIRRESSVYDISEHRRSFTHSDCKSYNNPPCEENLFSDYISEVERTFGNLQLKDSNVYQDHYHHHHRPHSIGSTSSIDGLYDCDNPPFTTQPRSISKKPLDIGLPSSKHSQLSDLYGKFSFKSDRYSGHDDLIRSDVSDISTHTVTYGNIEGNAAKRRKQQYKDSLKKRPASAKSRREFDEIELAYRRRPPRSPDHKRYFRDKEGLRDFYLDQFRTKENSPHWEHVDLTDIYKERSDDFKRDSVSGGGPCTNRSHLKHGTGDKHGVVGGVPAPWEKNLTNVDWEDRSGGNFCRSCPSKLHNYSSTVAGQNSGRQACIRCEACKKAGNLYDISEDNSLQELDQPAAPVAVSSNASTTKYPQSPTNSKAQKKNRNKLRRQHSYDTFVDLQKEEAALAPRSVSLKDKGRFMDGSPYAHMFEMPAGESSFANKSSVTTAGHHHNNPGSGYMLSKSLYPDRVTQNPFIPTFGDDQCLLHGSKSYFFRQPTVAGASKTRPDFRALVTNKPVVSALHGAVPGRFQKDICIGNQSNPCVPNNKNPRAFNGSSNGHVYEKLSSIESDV

Target: T1, SAP-102 (mouse (endogenous in mPFC tissue)) (UniProt P70175)
T1 sequence: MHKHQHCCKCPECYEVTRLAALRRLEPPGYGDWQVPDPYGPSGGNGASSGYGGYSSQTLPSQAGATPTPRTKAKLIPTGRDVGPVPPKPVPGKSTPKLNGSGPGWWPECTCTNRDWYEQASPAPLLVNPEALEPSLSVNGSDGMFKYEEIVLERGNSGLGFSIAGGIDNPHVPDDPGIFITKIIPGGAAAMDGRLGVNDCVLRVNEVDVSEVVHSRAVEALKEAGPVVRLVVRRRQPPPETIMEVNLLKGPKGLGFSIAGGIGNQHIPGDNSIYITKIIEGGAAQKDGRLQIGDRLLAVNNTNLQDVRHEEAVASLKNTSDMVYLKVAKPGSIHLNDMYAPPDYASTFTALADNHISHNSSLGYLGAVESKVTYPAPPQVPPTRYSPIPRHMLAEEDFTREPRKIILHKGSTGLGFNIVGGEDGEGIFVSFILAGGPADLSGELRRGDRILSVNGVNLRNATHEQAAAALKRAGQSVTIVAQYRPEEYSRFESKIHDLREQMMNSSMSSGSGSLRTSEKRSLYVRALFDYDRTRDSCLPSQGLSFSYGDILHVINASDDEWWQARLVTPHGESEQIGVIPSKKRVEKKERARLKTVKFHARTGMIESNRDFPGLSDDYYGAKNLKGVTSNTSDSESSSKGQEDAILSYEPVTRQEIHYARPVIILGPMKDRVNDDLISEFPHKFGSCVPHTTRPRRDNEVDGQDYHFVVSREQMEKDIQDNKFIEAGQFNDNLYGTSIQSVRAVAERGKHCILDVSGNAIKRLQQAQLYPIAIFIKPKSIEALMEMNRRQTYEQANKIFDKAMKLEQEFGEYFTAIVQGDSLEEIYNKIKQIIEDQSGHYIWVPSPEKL
Assay: co-IP; synaptosomal proteins of mPFC tissue from control and PSD-95 knockout mice incubated overnight with 2.5 µg anti-SAP-102; Protein G MagBeads 1-2 h at room temperature; washed three times with 1x PBS; blot for GluN2B (GluA1 as negative control)

Substance: NMDAR subunit GluN2B (from UniProt Q01097 27-1482) (receptor)
- binding: binds
